activity, negative = inhibition data for 4 molecules are collected here from PubChem BioAssay AID588590 (National Center for Advancing Translational Sciences (NCATS), 2011).

By UniProt entry, the sequences of proteins in these tests, tags left out. Where a name states a change or a piece, a line headed by the entry shows the natural chain unless it says otherwise.
UniProt Q9UNA4: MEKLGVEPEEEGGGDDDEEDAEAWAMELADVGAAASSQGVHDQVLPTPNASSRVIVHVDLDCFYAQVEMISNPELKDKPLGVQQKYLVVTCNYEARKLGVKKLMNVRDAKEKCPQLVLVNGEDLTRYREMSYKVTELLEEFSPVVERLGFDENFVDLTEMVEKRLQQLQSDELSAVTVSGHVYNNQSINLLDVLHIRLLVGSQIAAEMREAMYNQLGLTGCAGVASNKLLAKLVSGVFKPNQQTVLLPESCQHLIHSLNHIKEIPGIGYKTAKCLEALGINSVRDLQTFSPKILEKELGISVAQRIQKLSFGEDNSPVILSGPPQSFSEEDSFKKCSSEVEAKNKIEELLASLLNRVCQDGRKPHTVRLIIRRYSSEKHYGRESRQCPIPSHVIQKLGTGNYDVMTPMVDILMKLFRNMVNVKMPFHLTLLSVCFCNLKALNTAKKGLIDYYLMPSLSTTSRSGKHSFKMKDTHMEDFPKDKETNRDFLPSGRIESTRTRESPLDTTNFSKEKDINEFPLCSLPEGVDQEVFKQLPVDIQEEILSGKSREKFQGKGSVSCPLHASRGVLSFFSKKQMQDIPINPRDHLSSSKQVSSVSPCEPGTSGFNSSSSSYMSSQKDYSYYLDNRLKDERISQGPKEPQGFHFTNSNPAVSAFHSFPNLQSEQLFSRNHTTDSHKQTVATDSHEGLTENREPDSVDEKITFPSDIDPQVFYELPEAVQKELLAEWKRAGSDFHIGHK

This list holds what a sample rich in hits left over. Records with an inconclusive call do not appear. Activity calls are given as the source filed them. Calls follow the shape of the dose curve; as a rule, active = well fitted inhibition curve with a large enough effect; inconclusive = small, poorly fitted or top-dose-only effect, or another doubt; inactive = no such curve, though single readings can be large or run the other way.

The experiment addresses DNA polymerase iota (Homo sapiens) (UniProt Q9UNA4). As to the kind of experiment: qHTS for Inhibitors of Polymerase Iota. The following applies: Pol iota fluorescent replication assay, 10 min; at 115 µM (top of the series). An excerpt:
DNA polymerases, such as Pol iota, are specifically involved in DNA repair. Pol iota specifically plays an important role in translesion synthesis, where the normal high-fidelity DNA polymerases cannot proceed and DNA synthesis stalls. […] Thus, while pol eta's (and most likely iota's) normal function is to protect humans against the deleterious consequences of DNA damage, under certain conditions they can have deleterious effects on human health. As a consequence, we propose to utilize a high throughput replication assay to identify small molecule inhibitors of pol iota.
In a collaboration between the National Institute of Child Health & Human Development (NICHD) and NIH Chemical Genomics Center, a high-throughput, fluorescent screen was developed to screen the NIH Molecular Libraries Small Molecule Repository (MLSMR). This screen is used to identify inhibitors of pol iota.
NIH Chemical Genomics Center [NCGC]
NIH Molecular Libraries Probe Centers Network [MLPCN]
Assay Submitter (PI): Roger Woodgate, NICHD)
Three microliters of reagents (buffer in column 3 and 4 as negative control and 10 nM Pol iota in columns 1, 2, and 5-48) will be dispensed into 1,536-well black solid-bottomed plate. Compounds (23 nL) will be transferred via Kalypsys pin tool equipped with 1536-pin array. The plates will then be incubated for 15 min at room temperature, and 1 µL substrate (50 nM final concentration) will be added to start the reaction and kinetically read twice at 0 min and 10 min on the Viewlux reader.
A general note: In qHTS, concentration-response curves come from the screen itself.
Take `O=C(C=Cc1ccccc1)Nc1ccccc1`: the activity, negative = inhibition is inactive: 74.2%.
Regarding `CNC1CCc2cc(OC)c(OC)c(OC)c2-c2ccc(SC)c(=O)cc21` (centres undefined), the activity, negative = inhibition is inactive: 17.1%.
Consider `Cc1cc(=O)oc2cc(OCc3ccccc3)ccc12`, for which the activity, negative = inhibition is inactive: 91.7%.
The value for `CS(=O)(=O)Nc1cccc2[nH]ncc12` was inactive: 68.1%.
